Reference: patent publication US5411879A, “Fatty acyl reductases” (Calgene Inc., priority 1993, dated 1995)
At least one compound was matched to its structure with a doubt left.

Target: T1, jojoba acyl-CoA reductase (Simmondsia chinensis, UniProt Q9XGY7)
T1 sequence (Q9XGY7 1-493): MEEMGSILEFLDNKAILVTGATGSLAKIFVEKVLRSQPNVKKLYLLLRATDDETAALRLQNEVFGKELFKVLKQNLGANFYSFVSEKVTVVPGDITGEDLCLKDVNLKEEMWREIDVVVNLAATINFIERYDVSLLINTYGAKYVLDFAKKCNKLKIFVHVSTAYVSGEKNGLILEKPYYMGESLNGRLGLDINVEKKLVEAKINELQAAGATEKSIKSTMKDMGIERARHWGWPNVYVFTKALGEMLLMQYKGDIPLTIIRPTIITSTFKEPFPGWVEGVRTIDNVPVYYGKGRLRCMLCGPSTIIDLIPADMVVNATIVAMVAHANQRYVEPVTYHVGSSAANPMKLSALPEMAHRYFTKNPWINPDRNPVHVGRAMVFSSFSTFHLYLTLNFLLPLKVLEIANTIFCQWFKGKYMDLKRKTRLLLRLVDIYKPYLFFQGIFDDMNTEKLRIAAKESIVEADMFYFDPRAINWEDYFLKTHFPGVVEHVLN
Assay: Acyl (substrate) specificity of the reductase, microsomal membrane preparation
Assay type: biochemical
Parameters: The microsomal membrane preparation described above is used for further characterization of the reductase enzyme; from tissue; host or cells: developing jojoba embryos (seed coats removed), microsomal membrane preparation
Conditions: acyl-CoA thioester as substrate at 10 μM; 0.5M NaCl; pH 7.5
Excerpt: 3. […] NaCl concentration in these assays is 0.5M.

SMILES: CCCCCCCC/C=C\CCCCCCCCCCCCCC(=O)SCCNC(=O)CCNC(=O)[C@H](O)C(C)(C)COP(=O)(O)OP(=O)(O)OC[C@H]1O[C@@H](n2cnc3c(N)ncnc32)[C@H](O)[C@@H]1OP(=O)(O)O [24:1 Acyl-CoA, tetracosenoyl-CoA]
- Reductase Activity, Acyl-CoA (10 μM): 19.9 pmol/min/µL
